According to paper PMC10380284, “Investigating the Prevalence of RNA-Binding Metabolic Enzymes in E. coli” (International Journal of Molecular Sciences, 2023):
For at least one entry, the source does not settle the construct or the ends of the probe. Weaker means in comparison with the reference protein, sequence or condition of that experiment. For some assays here: At least one verdict was read from the data and is not stated in words by the source. Where a protein sequence is shown, tags need not be part of it.

Legend:
[1] = biological target: T1, Phosphoglycerate kinase Pgk (Escherichia coli K12) (UniProt P0A799); experiment: EMSA; conditions: 30 uM Pgk, 7 uM RNA; 50 mM Tris (HEPES for PykF), 80 mM NaCl, 10 mM KCl, 0.8 mM MgCl2, 0.5 mM DTT, pH 7.5, 30 min at 37 C (EMSA); recombinant protein; residues 1-387; protein details: N-terminal His (pCA24N, ASKA); label: 5' 32P
T1 sequence (looked up): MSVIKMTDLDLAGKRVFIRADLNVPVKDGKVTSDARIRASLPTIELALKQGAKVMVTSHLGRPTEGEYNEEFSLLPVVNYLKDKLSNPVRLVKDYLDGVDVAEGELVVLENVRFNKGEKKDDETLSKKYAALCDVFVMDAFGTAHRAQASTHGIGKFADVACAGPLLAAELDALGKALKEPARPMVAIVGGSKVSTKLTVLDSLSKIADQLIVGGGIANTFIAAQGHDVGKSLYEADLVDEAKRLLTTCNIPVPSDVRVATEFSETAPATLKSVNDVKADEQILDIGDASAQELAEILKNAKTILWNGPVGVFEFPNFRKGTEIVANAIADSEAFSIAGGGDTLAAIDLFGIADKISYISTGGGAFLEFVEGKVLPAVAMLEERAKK

[2] = biological target: T2, Quinone oxidoreductase QorA (Escherichia coli K12) (UniProt P28304); experiment: MST; conditions: 10 mM NADPH; 50 mM Tris (HEPES for PykF), 80 mM NaCl, 10 mM KCl, 0.8 mM MgCl2, 0.5 mM DTT, pH 7.5, 30 min at 37 C (EMSA); MST same buffer + 0.05% Tween-20; recombinant protein; residues 1-327; protein details: N-terminal His (pCA24N, ASKA); label: Cy5
T2 sequence (looked up): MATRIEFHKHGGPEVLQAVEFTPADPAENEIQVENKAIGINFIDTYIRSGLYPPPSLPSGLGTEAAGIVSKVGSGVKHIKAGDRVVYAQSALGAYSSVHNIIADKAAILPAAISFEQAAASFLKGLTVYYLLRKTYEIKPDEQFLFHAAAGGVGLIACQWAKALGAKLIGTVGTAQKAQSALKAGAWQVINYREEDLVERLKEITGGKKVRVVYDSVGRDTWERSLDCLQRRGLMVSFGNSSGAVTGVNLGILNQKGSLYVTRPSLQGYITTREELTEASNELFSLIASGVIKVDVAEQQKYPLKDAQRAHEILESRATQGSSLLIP

[3] = biological target: T2, Quinone oxidoreductase QorA (Escherichia coli K12); experiment: EMSA; conditions: 20 mM NADPH disrupts complex; 50 mM Tris (HEPES for PykF), 80 mM NaCl, 10 mM KCl, 0.8 mM MgCl2, 0.5 mM DTT, pH 7.5, 30 min at 37 C (EMSA); recombinant protein; residues 1-327; protein details: N-terminal His (pCA24N, ASKA); label: 5' 32P

Sequence	binding result [1]	other results
AUGAGGCCAAAAAGCCGUAU [Pgk SELEX hairpin 2]	binds more weakly	
CCCGCGCAAAAACGCAUCGU [Pgk SELEX hairpin 3]	binds more weakly	
GCCGCGCUAAACAGCGCAUU [Pgk SELEX hairpin 1]	binds more weakly	
GGAGCAUAUGGACUUCAGGGAAGGGAU [Cy5-yffO mRNA fragment]		binding result [2]: binds more weakly
GGAGCAUAUGGACUUCAGGGAAGGGAU [yffO mRNA fragment, 27 nt]		binding result [3]: binds more weakly
